Values from PubChem BioAssay AID1508588 (Peter MacCallum Cancer Centre, 2020)
Here is one part, drawn at random, of about 18,000 deposited reagents. 790 of them (4.4%) count as active. 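Calls rest on a combination of fold-change classes in drug and vehicle arms, not all shown here.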

- Screen: 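Genome-wide search for knock-downs that heighten vemurafenib action in melanoma cells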 (primary screen)
- System: human WM266.4 melanoma cells (BRAF V600 mutant)
- Knock-down reagent: siRNA pool against human genes, 40 nM
- Timing: 96 h from transfection to read-out
- Challenge: vemurafenib 300 nM (about IC25), added 48 h after transfection, for 48 h; comparison arm got DMSO vehicle only
- Measurement: 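Ratios to non-targeting siRNA for cell gain, counted as DAPI nuclei after minus before drug and averaged over two replicates, and for absorbance-read medium lactate per cell; both binned into fold-change classes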
- Scale: cell gain with vemurafenib: higher = more cell gain than with non-targeting siRNA; lactate per cell with vemurafenib: higher = more lactate made per cell
- Hit rule: 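a knock-down counts as enhancing when its fold-change classes with vehicle and with vemurafenib, taken together, show a stronger drug effect on cell gain or lactate per cell; exact class pairs not stated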
- Calls: active = enhances vemurafenib effect; inactive = no enhancement seen

KIF1C showed cell gain with vemurafenib 0.31; lactate per cell with vemurafenib 1.05; inactive.
For ATG2B, the values are cell gain with vemurafenib 0.8; lactate per cell with vemurafenib 0.66; inactive.
PHKA1 scored cell gain with vemurafenib 1.1; lactate per cell with vemurafenib 0.7; inactive.
After knock-down of DUSP14 the results were cell gain with vemurafenib 0.84; lactate per cell with vemurafenib 0.94; inactive.
Depletion of MPP7 gave: cell gain with vemurafenib 0.56; lactate per cell with vemurafenib 1.79; inactive.
Knock-down of GBP3 resulted in: cell gain with vemurafenib 0.41; lactate per cell with vemurafenib 0.52; inactive.
Silencing of PPP2R5D resulted in: cell gain with vemurafenib 0.54; lactate per cell with vemurafenib 1.13; inactive.
For JAML, the entry reads cell gain with vemurafenib 0.81; lactate per cell with vemurafenib 0.67; inactive.
Silencing of ZDHHC5 came out at: cell gain with vemurafenib 0.84; lactate per cell with vemurafenib 0.96; inactive.
For KCNA5, the values are cell gain with vemurafenib 0.54; lactate per cell with vemurafenib 0.92; inactive.
After knock-down of TP53INP2, the record shows cell gain with vemurafenib 0.49; lactate per cell with vemurafenib 0.87; inactive.
TSGA10IP scored cell gain with vemurafenib 1.07; lactate per cell with vemurafenib 0.62; inactive.
AARS2 gave cell gain with vemurafenib 0.5; lactate per cell with vemurafenib 0.49; inactive.
Depletion of SPACA3 resulted in: cell gain with vemurafenib 0.51; lactate per cell with vemurafenib 1.32; inactive.
After knock-down of EFCAB13 the results were cell gain with vemurafenib 0.74; lactate per cell with vemurafenib 0.51; inactive.
TFB2M gave cell gain with vemurafenib 0.77; lactate per cell with vemurafenib 1.64; inactive.
RPLP2 showed cell gain with vemurafenib 0.05; lactate per cell with vemurafenib 1.02; inactive.
Against KLHL27, the values are cell gain with vemurafenib 0.24; lactate per cell with vemurafenib 1.62; inactive.

Limited to “lactate per cell with vemurafenib” (4 entries from above):
KCNA5 = 0.92
TP53INP2 = 0.87
TSGA10IP = 0.62
AARS2 = 0.49

Next reagents:
GCSH gave cell gain with vemurafenib 0.75; lactate per cell with vemurafenib 1.47; inactive.
Against AVP, the values are cell gain with vemurafenib 0; lactate per cell with vemurafenib 1.62; inactive.
With knock-down of PHPT1 the results were cell gain with vemurafenib 0.81; lactate per cell with vemurafenib 0.69; inactive.
For CCDC93, the values are cell gain with vemurafenib 0.32; lactate per cell with vemurafenib 1.45; inactive.
RGS19 gave cell gain with vemurafenib 1.01; lactate per cell with vemurafenib 0.74; inactive.
Knock-down of PIP4P1 resulted in: cell gain with vemurafenib 0.67; lactate per cell with vemurafenib 0.78; inactive.
For ENSA, the values are cell gain with vemurafenib 0.68; lactate per cell with vemurafenib 0.32; inactive.
After knock-down of ZNF543 the results were cell gain with vemurafenib 0.52; lactate per cell with vemurafenib 0.32; inactive.
For TNFRSF11B, the values are cell gain with vemurafenib 0.75; lactate per cell with vemurafenib 0.79; inactive.
